Data taken from paper PMC7929561.

B1: Exo70 (protein, UniProt Q9VSJ8 1-693)
chain: MNNLDSSLQAHNKLEKEATNLALLKDRVDKYHDLSTQMSSILTIFEKRLGNLEQTILPVYQETEQLQKRQQNLEATLNCLESVLSHYDVSQEVCQLIHQGPVEGNISVFLDALAKLRDANDYFRHNNSQSVELENVTSLFNTGCEGLSQHYSMLLKKHSAPLKPVELLDLIYIEDDSSDEYTSFRQLSQTTREELYTISHWLEQNLREYTNIYATERGEVVLRSLQLLKDHQKSNSWGHEALRPRHSGRQTEPKKTTSARLQQIFEKKANKLYLRATQTIEQSTGFSIKKASSHSDHLTSEDLMDGDQELDKYLVMLLGLQRLLNWERAIMIDIIPQSKHNEVFATLAYNAIDLVVKDAEAITQRILRCISRKEWTSALGIFSALKRVILLQPDIDRTYDPAQREQLKKVLKKLQHTGAKALEHFLDVVKGESSTNIVGQSNVPKDATVHELTSNTIWFIEHLYDHFDVIGSILAQDVLYSTQLDTILMKKALPVEERNKALLAIYIKKALAELNLSIMNKCEQYNDQATKHLFRLNNIHYILKSLQRSNLIDLVTLAEPECEHSYMEMIRELKASYQKTWSKMLVGIYSLDELPKPVAGKVKDKDRSVLKERFSNFNKDFEEACKIQRGISIPDVILREGIKRDNVEHILPIYNRFYEIYSGVHFSKNPDKYVKYRQHEINAMLSKLFDDSA
B2: Kibra (protein, UniProt Q9VFG8 1-1288)
chain: MPNLQQTASQSQHHLHPHHLRPQQQQQQHHHHHQQQQQQQHTHHQQQQQHHSDFPLPDGWDIAKDFDGKTYYIDHINKKTTWLDPRDCYTKPQTFEDCVGDELPMGWEESYDPNIGPYYINHLAQSTQLEDPRQEWKTVQEQMLSDYLSAAQDQLENKREMFDVKQQRLLWAQEEYNHLKLAASRSSLCSSSSSMSRHDPELLRADLMLARERVHQLKQELTHITNDISYTERGMNTLYSVGEKINARENGCYDIAEVHAIREEMLKVHKSLVSGEKVREELMRSLVQIKNELGRQQISEENSDLASPFDRVCVASQTDLCGSSGENLNGGARFAEMAKTKWQYAEWRKHIKKLQQQLADHVERIEPGQLESDKDRILLIQEKEKLLNDLNSISLKSRSEEEKRVIHQTRHKLEEDLKEAYEANNTCVANRLRFHEEKQLLLDKLQEALKSTKLLEERLKSFSSESTFSISSGSSLGSLSTASSKSALSFTDIYIDPFAVDSPIDVVDLRRRSQRLFQQHQQQRLHPVHPVLQQQQSAEVTLSPRSSLSMETPPASPMKYNAGADQTPQALKEEPTYANALPAPPAYTAPPPVPISGVRARPYDLDSTVLDCMMLEAKLQKLNMGTPLNLAVAPLSPISEKPSLLDLPQEMLSRSSSTSNTRSVSAAVSNESVAGDSGVFEASRAHLPRKELAQVQIGLKYLKQEGVLVVSLERANNLLALWTASADNSQVYLRAALLPNSLTSIRTKALGDFQKPVFNDTFAVPITLDKLLTKSLQVTVVTMTGQKEEIIGTVQISMAEFNPEDSTLKWYNVLSSKFIPSFESLDIPSTSAAAAAAAVAASNAPNPGNNREESSDESTITSSQTSTLTRNQAPCMELQEQMAAELLGLGPLNEPECSDDDDDDEEEELDDKQLVSDVGLMNSSSMLHAYLQNMKQEFADKETNTDRAYLPEKSRGQSQLMDDRPVKRSQTFTPSEAFSKNRYNCRLNRSDSDSAMHCGVAPHTFQRGAAERRSLRFHSKAPKSVTKLHHTHIPRTSLDLELDLQAQHSKLYFLNDQIAKLQNLKEVLQKACENKDPLVAAWAIENEEFQRLVARADPAKCPEERQLQKLLMKTAKEIHKLRKTKVPKGCPDLVSFKEKITFFTRKGLSVPELPSEFTLPEANPIEEEEEEEDENEFYNSAETAIAINTALVASSNRNKNLSEHPHRATSGAVPKIPAPVVTPAATPAATPAATPAATSAATPAATPVVSPAAQPDAKPADAPIPVASNDAEQQRFDYVVDRNYGVEV
B3: Vimar (protein, UniProt A1Z6S7 1-635)
chain: MATAEIDDLIEKLKTTSVSPANTTNLLCEISATKDPKLFDKHELAECFLGLTKCDDTNVRKEAAKCIAEITKSEVQRKKFTKRNIIAAFLECLRQVPTSDGSMELPIQICRALGNICYLNDEARDLILELEGDAVLLRLLDITTIEDVANAAQFIKVRGGLLSNYLLGGEGLAKRAMELGVMKKLQGIIDIGASNVEQHEDLLLNTLPLLSILTENVSDLNFDSSLNIQLSRILAASTNPDLAEMCLELLHYQAESDEVKLILAKDGLCETIYNLLEKYKTLASTSEARALMKLACELIVLILTGDDSMHYLYTTPLLKNMVDWLDSTDIDLLTTGVLALGNFARTDSHCIYFVEQQTMNKLLEVLAKNNGVKDDVRLQHALLSALRNLVIPKPNKNAVIQAGLVQTILPMLEIHQPPVVFKLLGTLRMTVDGQEKLALELLKNKTLIEQLVHWSKSSDYAGVTGESLRLMAWLIKHAYLSKIAYALPRKGDAPAEQIADKIPLTQDYDRSSLSEFLANEGTVEAMVSMLTAQHLVMQNEALIALCILSVVYLSQPSEAAQAQLLQDELVKCEVGKKLAELISKSSDTMTKEIVENLQNCVNLLKSSEQLVAHLEQHNINELLKSIPILTEYCTL

These binders were tested against GFP-tagged, full-length Dystroglycan (Dg::GFP) (Drosophila melanogaster) (assay: affinity purification with mass spectrometry; Dg::GFP immunoprecipitated with GFP-Trap beads (anti-GFP) from lysates of adult fly heads in RIPA buffer (50 mM Tris-HCl pH 7.5, 125 mM NaCl, 0.5% NP40, 0.25% Na-deoxycholate); SDS-PAGE, in-gel Lys-C digestion, LC-MS/MS; proteins enriched at least twofold over control in two biological replicates taken as Dg interactors).

binding, binds:
B1, B2, B3

No constants are given. Whether binding was seen depends on the method and setting. Binding seen in cells or lysates may run through a third protein. Here binding means that the protein was enriched with, or labelled near, the bait; the list need not be complete.
